Broadly, the Kd is the concentration at which binding is half-saturated.

The data set addresses T1, DrRuvC (Deinococcus radiodurans) (UniProt Q9RX75).
T1 sequence (looked up): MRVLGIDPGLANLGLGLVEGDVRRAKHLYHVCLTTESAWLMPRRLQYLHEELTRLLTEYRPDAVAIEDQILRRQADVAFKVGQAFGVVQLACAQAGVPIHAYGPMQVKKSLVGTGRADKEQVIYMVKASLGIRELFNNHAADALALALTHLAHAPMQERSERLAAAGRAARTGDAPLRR
Put plainly: EMSA. To be noted: EMSA: 100 nM 6-FAM substrate, 50 mM Tris-HCl pH 8.0, 125 mM NaCl, 10 ug/mL BSA, 1 mM TCEP, 5% glycerol, 30 C 10 min, 5% native PAGE in 0.5x Tris-borate, recombinant protein, residues 1-179, protein details: N-terminal His-MBP-TEV, removed by TEV, label: 5'-6-FAM on J31-1; for Kd: only nonspecific complexes; for binding result: folded or branched DNA.

Tags and fusion partners may be left off the protein sequences shown. Construct, isoform or probe ends are uncertain for at least one entry. Weaker means in comparison with the reference protein, sequence or condition of that experiment. At least one verdict was read from the data and is not stated in words by the source.

As for “GCTAGCCACAGCCATTCGTACGATTGCGGGA (double strand) [duplex]”, the Kd was greater than 1100 nM.
On to “GCTAGCCACAGCCATTCGTACGATTGCGGGA / ATGGCATCTGCAGGCAATGGCTGTGGCTAGC [splayed duplex-b]”, for which the binding result was “binds more weakly”.
Regarding “GCTAGCCACAGCCATTCGTACGATTGCGGGA / TCCCGCAATCGTATTTTTGGCTGTGGCTAGC [bulge]”, the Kd is greater than 1100 nM.
“GCTAGCCACAGCCATTCGTACGATTGCGGGA / TCCCGCAATCGTCCGTTTCCGAGCACGATCT [splayed duplex-a]”: the binding result is “binds more weakly”.

The values are drawn from PMC9601230 (mBio, 2022).
